Source: PubChem BioAssay AID1259405 (NCATS, 2018)
Shown is a random part of about 50,000 reagents tested. In the full data, about 4,000 (8%) are marked active. 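Mouse siRNA library applied to hamster cells; one well for each siRNA.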 Entries without a mark were called inactive. The numbers tell different reagents against one gene apart. Reagent sequences are not shown.

Purpose: 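Knock-downs that lift recombinant protein yield in hamster ovary cells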 (primary screen)
Cells: Chinese hamster CHO-K1 ovary cells with stable secreted eGFP expression
Knock-down reagent: single siRNA against mouse genes, 0.8 pmol siRNA per well (2 µl of 400 nM stock)
Time to read-out: 3 days
Read-out: 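Percent of the per-plate non-targeting control median for intracellular GFP per well by laser scanning cytometry and for cell viability by ATP luminescence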
Direction: GFP, % of control: higher = more GFP per well, higher productivity; viability (ATP), % of control: higher = more viable cells (more ATP)
Call rule: 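a knock-down is called active if GFP reaches 120% or more of non-targeting control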

| Target gene | siRNA no. | GFP, % of control | viability (ATP), % of control |
| --- | --- | --- | --- |
| Or4q3 | 1 | 68.1 | 71.9 |
| Or4q3 | 2 | 71.5 | 60 |
| Or4q3 | 3 | 84 | 107 |
| Hspa1a | 1 | 70.1 | 76.3 |
| Hspa1a | 2 | 79.9 | 78.3 |
| Hspa1a | 3 | 96.7 | 138 |
| Kiss1r | 1 | 124 (active) | 104 |
| Kiss1r | 2 | 56.9 | 58.1 |
| Kiss1r | 3 | 86.1 | 82.4 |
| Or9s18 | 1 | 54.5 | 63.8 |
| Or9s18 | 2 | 88.2 | 85.8 |
| Or9s18 | 3 | 69.9 | 87 |
| Plvap | 1 | 21.1 | 20.5 |
| Plvap | 2 | 69.1 | 29.5 |
| Plvap | 3 | 73.5 | 127 |
| Pcdhgb2 | 1 | 107 | 70.7 |
| Pcdhgb2 | 2 | 54.9 | 62.6 |
| Pcdhgb2 | 3 | 49.2 | 63.7 |
| Slfn10 | 1 | 107 | 85.2 |
| Slfn10 | 2 | 69.9 | 80.2 |
| Slfn10 | 3 | 55 | 91.3 |
| Adamts20 | 1 | 68.5 | 89.7 |
| Adamts20 | 2 | 50.4 | 70.9 |
| Adamts20 | 3 | 63.1 | 55.7 |
| Add3 | 1 | 37.7 | 46.7 |
| Add3 | 2 | 71.3 | 67.9 |
| Add3 | 3 | 12.6 | 18.6 |
| 6030498E09Rik | 1 | 90.1 | 54.3 |
| 6030498E09Rik | 2 | 87.5 | 91.5 |
| 6030498E09Rik | 3 | 121 (active) | 123 |
| Or2a54 | 1 | 64.5 | 60.6 |
| Or2a54 | 2 | 71.9 | 89.1 |
| Or2a54 | 3 | 26.9 | 69.4 |
| Crot | 1 | 94.6 | 83.3 |
| Crot | 2 | 117 | 66.1 |
| Crot | 3 | 112 | 91.3 |

Entries above whose gene name begins with P or p:
| Target gene | siRNA no. | GFP, % of control | viability (ATP), % of control |
| --- | --- | --- | --- |
| Plvap | 1 | 21.1 | 20.5 |
| Plvap | 2 | 69.1 | 29.5 |
| Plvap | 3 | 73.5 | 127 |
| Pcdhgb2 | 1 | 107 | 70.7 |
| Pcdhgb2 | 2 | 54.9 | 62.6 |
| Pcdhgb2 | 3 | 49.2 | 63.7 |

Continued:
| Target gene | siRNA no. | GFP, % of control | viability (ATP), % of control |
| --- | --- | --- | --- |
| Dgkg | 1 | 80.7 | 79.5 |
| Ghdc | 1 | 89.4 | 84.8 |
| Ghdc | 2 | 75.6 | 80.1 |
| Ghdc | 3 | 82.4 | 92.2 |
| Or5b3 | 1 | 69.8 | 75.6 |
| Or5b3 | 2 | 54.6 | 66.1 |
| Or5b3 | 3 | 30.2 | 48.1 |
| Or6c209 | 1 | 66.5 | 67.8 |
| Or6c209 | 2 | 51 | 79.6 |
| Or6c209 | 3 | 84 | 78.3 |
| Myh8 | 1 | 33.2 | 56.9 |
| Myh8 | 2 | 73.3 | 71.8 |
| Lcn10 | 1 | 66.6 | 64.7 |
| Lcn10 | 2 | 94.5 | 76.5 |
| Lcn10 | 3 | 56.4 | 47.8 |
| Defb11 | 1 | 82.2 | 62.3 |
| Defb11 | 2 | 83 | 102 |
| Defb11 | 3 | 36.2 | 48.1 |
| 1700102P08Rik | 1 | 89.6 | 69.5 |
| 1700102P08Rik | 2 | 110 | 101 |
| 1700102P08Rik | 3 | 68.2 | 53.8 |
